These are literature values, as cited in patent US10040872B2, “Alkylated cyclodextrin compositions and processes for preparing and using the same” (CyDex Pharmaceuticals, Inc., priority 2012, dated 2018).

For this data set the following is noted: at saturation.

Take `OC[C@H]1O[C@@H]2O[C@H]3[C@H](O)[C@@H](O)[C@@H](O[C@H]4[C@H](O)[C@@H](O)[C@@H](O[C@H]5[C@H](O)[C@@H](O)[C@@H](O[C@H]6[C@H](O)[C@@H](O)[C@@H](O[C@H]7[C@H](O)[C@@H](O)[C@@H](O[C@H]1[C@H](O)[C@H]2O)O[C@@H]7CO)O[C@@H]6CO)O[C@@H]5CO)O[C@@H]4CO)O[C@@H]3CO` [α-CD, α-cyclodextrin]: the solubility in water result is reported as “about 145 g/L”.
